Values quoted from earlier work, collected in patent US12171806B2, “Therapeutic regimens and methods for lowering blood glucose and/or body weight using GLP-1R and GCGR balanced agonists” (priority 2021, dated 2024).
At least one structure is not confirmed: it was looked up by name or label, or the drawing left a doubt.

Conditions: recent clinical trial in NASH; cited from earlier work

SMILES: CCCCCCCCCCCCCCCC(=O)N[C@@H](CCC(=O)NCCCC[C@H](NC(=O)[C@H](C)NC(=O)[C@H](C)NC(=O)[C@H](CCC(N)=O)NC(=O)CNC(=O)[C@H](CCC(=O)O)NC(=O)[C@H](CC(C)C)NC(=O)[C@H](Cc1ccc(O)cc1)NC(=O)[C@H](CO)NC(=O)[C@H](CO)NC(=O)[C@@H](NC(=O)[C@H](CC(=O)O)NC(=O)[C@H](CO)NC(=O)[C@@H](NC(=O)[C@H](Cc1ccccc1)NC(=O)[C@@H](NC(=O)CNC(=O)[C@H](CCC(=O)O)NC(=O)[C@H](C)NC(=O)[C@@H](N)Cc1cnc[nH]1)[C@@H](C)O)[C@@H](C)O)C(C)C)C(=O)N[C@@H](CCC(=O)O)C(=O)N[C@@H](Cc1ccccc1)C(=O)N[C@H](C(=O)N[C@@H](C)C(=O)N[C@@H](Cc1c[nH]c2ccccc12)C(=O)N[C@@H](CC(C)C)C(=O)N[C@H](C(=O)N[C@@H](CCCNC(=N)N)C(=O)NCC(=O)N[C@@H](CCCNC(=N)N)C(=O)NCC(=O)O)C(C)C)[C@@H](C)CC)C(=O)O [liraglutide]
- body weight lost: 5.5%
